Protein sequences, listed by entry. Tags and fused reporters are not part of them.
UniProt Q8CEL2: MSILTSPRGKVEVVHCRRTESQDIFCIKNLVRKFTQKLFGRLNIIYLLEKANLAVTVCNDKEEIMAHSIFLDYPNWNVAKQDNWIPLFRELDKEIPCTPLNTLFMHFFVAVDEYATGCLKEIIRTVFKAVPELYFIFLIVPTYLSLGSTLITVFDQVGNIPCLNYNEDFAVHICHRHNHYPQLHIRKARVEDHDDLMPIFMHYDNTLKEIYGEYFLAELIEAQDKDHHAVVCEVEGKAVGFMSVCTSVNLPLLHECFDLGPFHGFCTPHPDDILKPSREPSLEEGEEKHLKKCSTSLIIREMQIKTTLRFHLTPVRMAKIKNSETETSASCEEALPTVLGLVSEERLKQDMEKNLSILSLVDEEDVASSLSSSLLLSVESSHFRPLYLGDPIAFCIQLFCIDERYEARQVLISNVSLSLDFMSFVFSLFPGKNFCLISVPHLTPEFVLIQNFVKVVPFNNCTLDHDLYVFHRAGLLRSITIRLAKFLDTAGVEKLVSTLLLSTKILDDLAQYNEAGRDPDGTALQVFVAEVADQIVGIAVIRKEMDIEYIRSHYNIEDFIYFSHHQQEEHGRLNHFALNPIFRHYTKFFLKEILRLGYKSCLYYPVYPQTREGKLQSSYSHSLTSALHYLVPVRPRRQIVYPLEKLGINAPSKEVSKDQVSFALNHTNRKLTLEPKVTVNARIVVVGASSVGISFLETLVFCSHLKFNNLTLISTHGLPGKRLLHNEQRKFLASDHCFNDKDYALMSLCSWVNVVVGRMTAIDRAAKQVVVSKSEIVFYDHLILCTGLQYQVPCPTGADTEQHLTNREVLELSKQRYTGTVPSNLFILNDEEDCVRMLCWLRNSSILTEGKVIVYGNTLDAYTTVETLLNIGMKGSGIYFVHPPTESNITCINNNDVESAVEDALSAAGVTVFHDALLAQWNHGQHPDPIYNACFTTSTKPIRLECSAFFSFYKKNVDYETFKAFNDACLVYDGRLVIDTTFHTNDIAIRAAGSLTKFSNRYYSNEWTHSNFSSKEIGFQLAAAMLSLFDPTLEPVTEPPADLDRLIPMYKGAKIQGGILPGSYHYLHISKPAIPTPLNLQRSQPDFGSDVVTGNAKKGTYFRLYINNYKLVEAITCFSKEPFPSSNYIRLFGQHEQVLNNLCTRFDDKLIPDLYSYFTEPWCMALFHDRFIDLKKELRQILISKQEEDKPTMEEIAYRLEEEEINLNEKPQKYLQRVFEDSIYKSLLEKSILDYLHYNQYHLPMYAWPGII

According to publication doi:10.1101/2021.03.04.433881:

Biological target: CFAP61, endogenous in mouse testis (mouse (endogenous in testis)) (UniProt Q8CEL2)
Experiment: affinity purification with mass spectrometry

B1: RSPH9, endogenous in mouse testis (protein, UniProt Q9D9V4 1-276)
chain: MDADSLLLSLELASGSGQGLSPDRRASLLTSLMLVKRDYRFARVLFWGRILGLVADYYIAQGLSEDQLAPRKTLYSLNCTEWSLLPPATEEMAMQISVVSGRFMGDPSHEYEHTELQKVNEGEKVFDEEVVVQIKEETRLVSIIDQIDKAVAIIPRGALFKTPFGVTHVNRTFEGLPLSEVRKLSSYFHFREAIDLKNKTLLEKSDLEPSLDFLDSLEYDIPRGSWSIQMERGNALVVLRSLLWPGLTFYHAPRTKNYGYIYVGTGEKNMDLPFML
  binding: binds

These are yes or no findings as the source states them, for the method shown. Binding seen in cells or lysates may run through a third protein. Here binding means that the protein was enriched with, or labelled near, the bait; the list need not be complete.
